US20260183269A1, “PHARMACEUTICAL COMPOSITION FOR PREVENTION OR TREATMENT OF DRUG-RELATED PEPTIC ULCER COMPRISING ZASTAPRAZAN OR PHARMACEUTICALLY ACCEPTABLE SALT THEREOF” (priority 2022, published 2026)
Like-named read-outs stand apart in the source and are kept apart here.

Assay: clinical
Type: in vivo, human (healthy subjects)
Conditions: human, oral; for AUC(0-t): in vivo, n = 22, mean ± SD, read-out: naproxen AUCT, SS; for Cmax: n = 22, plasma, mean ± SD, read-out: naproxen Cmax, SS
Description: • JP-1366, 20 mg 2 capsules (zastaprazan citrate salt 40 mg)
Blood samples were collected from each subject at a designated time for the PK evaluation of the clinical trial drug, and all subjects underwent safety evaluation according to the designated schedule.
Blood samples were collected at designated times for the PK evaluation of zastaprazan (JP-1366).

[1] = Z + N (zastaprazan 40 mg and naproxen 500 mg)

AUC(0-t) (N (naproxen 500 mg alone)): 757 ± 66.6 µg·h/mL
AUC(0-t) [1]: 770 ± 76 µg·h/mL
Cmax (N (naproxen 500 mg alone)): 92.5 ± 8.19 µg/mL
Cmax [1]: 97.4 ± 11.5 µg/mL
SMILES: COc1ccc2cc([C@H](C)C(=O)O)ccc2c1 [Naproxen, naproxen, reference compound]
